For one test, the target named is human δ opioid receptor (Homo sapiens, UniProt P41143). Description: Opioid receptor binding, [3H]naltrindole, CHO cell membranes.
In a further test the target is human κ opioid receptor (Homo sapiens, UniProt P41145). Description: Opioid receptor binding, [3H]U69,593, CHO cell membranes.
The next test relates to nociceptive thresholds. The test is classed as in vivo, rat. As to conditions: large icv doses (250-500 nmol), 7 – 11 min after administration, TF and HP.
Test [1] addresses cDNA-expressed human CYP2C19 (Homo sapiens, UniProt P33261). Put plainly: biochemical.

By UniProt entry, the sequences of proteins in these tests, tags left out. Where a name states a change or a piece, a line headed by the entry shows the natural chain unless it says otherwise.
UniProt P41145: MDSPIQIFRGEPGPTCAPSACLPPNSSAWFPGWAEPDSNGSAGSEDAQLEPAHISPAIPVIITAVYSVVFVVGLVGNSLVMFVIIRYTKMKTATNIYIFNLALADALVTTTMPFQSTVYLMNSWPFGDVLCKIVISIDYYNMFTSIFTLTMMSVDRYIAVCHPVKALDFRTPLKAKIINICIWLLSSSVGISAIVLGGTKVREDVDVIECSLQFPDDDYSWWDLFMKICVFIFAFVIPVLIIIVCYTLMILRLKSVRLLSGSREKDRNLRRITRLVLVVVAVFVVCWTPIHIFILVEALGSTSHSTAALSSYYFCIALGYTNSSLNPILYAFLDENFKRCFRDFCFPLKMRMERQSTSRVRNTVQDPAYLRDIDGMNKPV
UniProt P33261, whole entry: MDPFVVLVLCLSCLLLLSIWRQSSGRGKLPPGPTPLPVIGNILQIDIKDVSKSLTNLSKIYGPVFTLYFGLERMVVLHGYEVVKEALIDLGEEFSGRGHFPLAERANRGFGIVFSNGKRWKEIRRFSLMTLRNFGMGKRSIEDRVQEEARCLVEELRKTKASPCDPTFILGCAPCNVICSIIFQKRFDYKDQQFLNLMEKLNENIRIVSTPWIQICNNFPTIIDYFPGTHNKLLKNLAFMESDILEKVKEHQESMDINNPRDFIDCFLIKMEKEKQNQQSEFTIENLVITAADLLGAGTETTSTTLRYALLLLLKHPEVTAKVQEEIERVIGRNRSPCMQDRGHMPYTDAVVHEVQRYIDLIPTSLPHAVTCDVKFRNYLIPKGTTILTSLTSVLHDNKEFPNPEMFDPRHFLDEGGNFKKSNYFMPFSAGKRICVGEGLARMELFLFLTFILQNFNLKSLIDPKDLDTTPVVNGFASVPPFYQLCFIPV

Molecules are shown by their SMILES.

For the molecule `Clc1ccc(CSC(Cn2ccnc2)c2ccc(Cl)cc2Cl)cc1` (stereo not shown) [Sulconazole, sulconazole], the results for the Ki (on human δ opioid receptor; on human κ opioid receptor; in test [1]) were 690 ± 44 nM, 960 ± 51 nM and 31 nM, respectively. Also, the “Antinociception of inhibitor alone” value in the test on nociceptive thresholds was “notable antinociception”.
